Results are given in words; binding and its absence hold for the method and conditions named. In cells and extracts the contact can be indirect. Some results given as binding are weak or reduced against the parent protein; the word gives no strength.
Target: langerin (human (endogenous in primary Langerhans cells)) (UniProt Q9UJ71)
Experiment: co-IP; whole cell extracts of primary human LCs in RIPA lysis buffer; 40 μg of extract; caveolin and langerin each immunoprecipitated (anti-Caveolin, Cell Signalling; 10E2 anti-langerin) on protein A/G PLUS agarose beads; immunoblot with Goat-anti-langerin or Rabbit-anti-Caveolin-1

By UniProt entry, the sequences of proteins in these tests, tags left out.
UniProt Q9UJ71: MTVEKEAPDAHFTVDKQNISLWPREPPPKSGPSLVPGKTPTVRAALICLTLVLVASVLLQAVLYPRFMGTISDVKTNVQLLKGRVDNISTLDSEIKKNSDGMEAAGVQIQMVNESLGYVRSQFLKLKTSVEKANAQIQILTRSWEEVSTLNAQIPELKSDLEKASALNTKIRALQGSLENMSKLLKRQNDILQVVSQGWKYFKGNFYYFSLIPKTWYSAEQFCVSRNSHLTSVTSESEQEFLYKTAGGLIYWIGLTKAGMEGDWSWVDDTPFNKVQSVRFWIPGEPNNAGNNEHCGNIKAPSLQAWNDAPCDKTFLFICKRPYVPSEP
UniProt Q03135: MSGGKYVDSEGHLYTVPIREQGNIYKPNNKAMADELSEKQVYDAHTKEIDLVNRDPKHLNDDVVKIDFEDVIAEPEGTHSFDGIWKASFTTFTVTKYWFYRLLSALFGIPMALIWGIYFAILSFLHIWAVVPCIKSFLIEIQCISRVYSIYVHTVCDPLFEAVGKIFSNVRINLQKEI

## caveolin-1 (from UniProt Q03135 1-178)
  binding: binds
